Reference: PubChem BioAssay AID1508597 (Cure First, 2020)
Shown is an unselected part of the about 2,100 reagents, in one setting of the screen. 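Calls flag viability under 80% in either arm, not effects specific to rucaparib; the reference for percent is not stated.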 Unmarked entries are inactive. Reagent sequences are not shown. The record does not give: the 100% reference.

Assay: 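Survival screen with siRNA in ovarian cancer cells derived from patients, with or without rucaparib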 (primary screen)
Cells: human ovarian carcinoma lines grown from tumours: OCI-P5x (papillary serous) and OCI-C5x (clear cell)
Reagents: siRNA pool against human genes, 1.25 pmol siRNA per well
Time to read-out: 72 h or 96 h, depending on the cell culture
Treatment: rucaparib 20 µM (about IC30) or vehicle, present until read-out
Rucaparib or vehicle: Vehicle
Cell line: OCI-P5x (serous)
Measurement: 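Luminescent ATP-based viability assay read 72 or 96 h after transfection, depending on culture, given as normalised percent viability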
Reading the numbers: viability, normalised: higher = more viable cells remaining
Rule for the call: 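Active when normalised viability falls below 80 percent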
Meaning of the calls: active = viability under 80%; inactive = viability 80% or more

| target gene | technical replicate | viability, normalised (%) |
| --- | --- | --- |
| MOS (GeneID 4342) | 1 | 80.6 |
| MOS (GeneID 4342) | 2 | 59.6 (active) |
| MOS (GeneID 4342) | 3 | 80.9 |
| TRERF1 (GeneID 55809) | 1 | 93.7 |
| TRERF1 (GeneID 55809) | 2 | 85.5 |
| TRERF1 (GeneID 55809) | 3 | 97.8 |
| RRP8 (GeneID 23378) | 1 | 36.7 (active) |
| RRP8 (GeneID 23378) | 2 | 40.7 (active) |
| RRP8 (GeneID 23378) | 3 | 76.7 (active) |
| RERE (GeneID 473) | 1 | 63.8 (active) |
| RERE (GeneID 473) | 2 | 64.3 (active) |
| RERE (GeneID 473) | 3 | 67 (active) |
| IL11 (GeneID 3589) | 1 | 74.5 (active) |
| IL11 (GeneID 3589) | 2 | 60.4 (active) |
| IL11 (GeneID 3589) | 3 | 93 |
| SLC1A4 (GeneID 6509) | 1 | 58.9 (active) |
| SLC1A4 (GeneID 6509) | 2 | 58.9 (active) |
| SLC1A4 (GeneID 6509) | 3 | 58.4 (active) |
| YJU2B (GeneID 81576) | 1 | 77.2 (active) |
| YJU2B (GeneID 81576) | 2 | 78.7 (active) |
| YJU2B (GeneID 81576) | 3 | 78.7 (active) |
| DLG5 (GeneID 9231) | 1 | 70 (active) |
| DLG5 (GeneID 9231) | 2 | 71 (active) |
| DLG5 (GeneID 9231) | 3 | 65.6 (active) |
| DPF2 (GeneID 5977) | 1 | 65 (active) |
| DPF2 (GeneID 5977) | 2 | 66.3 (active) |
| DPF2 (GeneID 5977) | 3 | 61.9 (active) |
| MAP3K1 (GeneID 4214) | 1 | 82.2 |
| MAP3K1 (GeneID 4214) | 2 | 71.6 (active) |
| MAP3K1 (GeneID 4214) | 3 | 63 (active) |
| SFMBT1 (GeneID 51460) | 1 | 64.1 (active) |
| SFMBT1 (GeneID 51460) | 2 | 66.4 (active) |
| SFMBT1 (GeneID 51460) | 3 | 76.7 (active) |
| KAT6B (GeneID 23522) | 1 | 48.2 (active) |
| KAT6B (GeneID 23522) | 2 | 58 (active) |
| KAT6B (GeneID 23522) | 3 | 67.1 (active) |
| ACTL6A (GeneID 86) | 1 | 46.1 (active) |
| ACTL6A (GeneID 86) | 2 | 68.2 (active) |
| ACTL6A (GeneID 86) | 3 | 72 (active) |
| PHKG2 (GeneID 5261) | 1 | 56.5 (active) |
| PHKG2 (GeneID 5261) | 2 | 69 (active) |
| PHKG2 (GeneID 5261) | 3 | 51.5 (active) |
| NTRK3 (GeneID 4916) | 1 | 110 |
| NTRK3 (GeneID 4916) | 2 | 94.9 |
| NTRK3 (GeneID 4916) | 3 | 97.9 |
| RPS6KA2 (GeneID 6196) | 1 | 98.1 |
| RPS6KA2 (GeneID 6196) | 2 | 75.6 (active) |
| RPS6KA2 (GeneID 6196) | 3 | 90.4 |
| NEK3 (GeneID 4752) | 1 | 89.3 |
| NEK3 (GeneID 4752) | 2 | 85.2 |
| NEK3 (GeneID 4752) | 3 | 78.5 (active) |
| POU1F1 (GeneID 5449) | 1 | 46 (active) |
| POU1F1 (GeneID 5449) | 2 | 46.7 (active) |
| POU1F1 (GeneID 5449) | 3 | 119 |
| NDEL1 (GeneID 81565) | 1 | 53.2 (active) |
| NDEL1 (GeneID 81565) | 2 | 61.5 (active) |
| NDEL1 (GeneID 81565) | 3 | 68 (active) |
| ERBB2 (GeneID 2064) | 1 | 71.4 (active) |
| ERBB2 (GeneID 2064) | 2 | 67.5 (active) |
| ERBB2 (GeneID 2064) | 3 | 69.4 (active) |
| CLDN7 (GeneID 1366) | 1 | 67.1 (active) |
| CLDN7 (GeneID 1366) | 2 | 77.1 (active) |
| CLDN7 (GeneID 1366) | 3 | 123 |
| SMC3 (GeneID 9126) | 1 | 54.7 (active) |
| SMC3 (GeneID 9126) | 2 | 62.5 (active) |
| SMC3 (GeneID 9126) | 3 | 74.1 (active) |
| PSKH1 (GeneID 5681) | 1 | 87.4 |
| PSKH1 (GeneID 5681) | 2 | 82.8 |
| PSKH1 (GeneID 5681) | 3 | 59.9 (active) |
| NME1-NME2 (GeneID 654364) | 1 | 89.5 |
| NME1-NME2 (GeneID 654364) | 2 | 100 |
| NME1-NME2 (GeneID 654364) | 3 | 95.9 |
| TMPO (GeneID 7112) | 1 | 96.6 |
| TMPO (GeneID 7112) | 2 | 97.4 |
| TMPO (GeneID 7112) | 3 | 87.9 |
